Measurements taken from patent US10092584B2 (Achillion Pharmaceuticals, Inc., priority 2015, dated 2018).

Protein sequences, listed by entry. Tags and fused reporters are not part of them. Residues count along the entry.
UniProt P00746, 26-253: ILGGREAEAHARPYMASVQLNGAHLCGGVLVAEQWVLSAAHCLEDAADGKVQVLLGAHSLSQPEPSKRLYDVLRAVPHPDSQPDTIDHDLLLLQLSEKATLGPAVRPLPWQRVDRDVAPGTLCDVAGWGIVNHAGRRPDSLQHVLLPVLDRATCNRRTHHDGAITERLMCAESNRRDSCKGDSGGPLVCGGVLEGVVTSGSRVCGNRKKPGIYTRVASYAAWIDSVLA

Target: T1, Human Factor D (Homo sapiens, UniProt P00746)
T1 construct: purified from human serum; purchased Complement Technology, Inc; host or cells: human serum
Assay: Human Factor D assay (Example 8)
Format: biochemical
Procedure: Human Factor D (purified from human serum, Complement Technology, Inc.) at 80 nM final concentration was incubated with test compound at various concentrations for 5 minutes at room temperature in 50 mM Tris, 1M NaCl, pH 7.5. A synthetic substrate Z-L-Lys-SBzl and DTNB (Ellman's reagent) are added to final concentrations of 100 μM each. […] IC50 values are calculated by nonlinear regression of complement Factor D reaction rates as a function of test compound concentration.

Question: `CC(=O)c1cn(CC(=O)N2C[C@H](F)C[C@H]2C(=O)NC2Cc3ccccc3C2)c2ccccc12` [Compound 43, (2S,4R)-1-(2-(3-acetyl-1H-indol-1-yl)acetyl)-N-(2,3-dihydro-1H-inden-2-yl)-4-fluoropyrrolidine-2-carboxamide] was tested. Which IC50 did it give?
Answer: < 1000 nM
